Source: PubChem BioAssay AID1259424 (University of Nebraska Medical Center, 2018)
Here is an unselected part of about 14,000 reagents tested. 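Higher correlation or smaller distance means closer resemblance to KSR1 loss; control wells, including KSR1 knockdowns, recur on many plates.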 Not all columns of the deposit are shown. Not given: the time to read-out.

Aim: 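Find knockdowns that reproduce the expression shifts seen after KSR1 loss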 (primary screen)
Cell system: human HCT116 colon cancer cells
Reagents: siRNA pool against human genes, 50 nM
Read-out: 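Log2 levels of six mRNAs (branched-DNA multiplex), adjusted by two reference genes and the non-targeting median, then scored against the average KSR1 knockdown pattern as Pearson r and euclidean distance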
Reading the numbers: mean correlation with KSR1 profile and KSR1 correlation: higher = expression change more like KSR1 knockdown; mean distance from KSR1 profile: higher = expression change less like KSR1 knockdown

Target gene | mean correlation with KSR1 profile | mean distance from KSR1 profile | KSR1 correlation, replicate 1 | KSR1 correlation, replicate 2
PSKH1 (protein serine kinase H1) | 0.336 | 2.38 | 0.531 | 0.399
VRK1 (VRK serine/threonine kinase 1) | 0.721 | 2.18 | 0.8 | 0.694
INTS14 (integrator complex subunit 14) | 0.614 | 1.84 | 0.417 | 0.53
CORO1C (coronin 1C) | -0.283 | 4.33 | -0.244 | -0.0601
CLEC2D (C-type lectin domain family 2 member D) | 0.0384 | 2.62 | 0.0958 | -0.0421
PAPPA2 (pappalysin 2) | 0.45 | 1.37 | 0.422 | 0.49
GALNT2 (polypeptide N-acetylgalactosaminyltransferase 2) | -0.415 | 2.16 | -0.569 | -0.59
NEUROG1 (neurogenin 1) | 0.236 | 1.72 | 0.374 | 0.446
COL20A1 (collagen type XX alpha 1 chain) | -0.175 | 4.25 | 0.0507 | -0.186
NOD2 (nucleotide binding oligomerization domain containing 2) | 0.312 | 1.6 | 0.214 | 0.596
DCTN3 (dynactin subunit 3) | 0.302 | 1.36 | 0.394 | 0.301
OR2A4 (olfactory receptor family 2 subfamily A member 4) | 0.819 | 1.46 | 0.832 | 0.748
TDG (thymine DNA glycosylase) | -0.286 | 2.35 | -0.152 | -0.362
GFOD2 (Gfo/Idh/MocA-like oxidoreductase domain containing 2) | -0.108 | 2.72 | -0.14 | -0.18
GANC (glucosidase alpha, neutral C) | 0.346 | 1.97 | 0.413 | 0.178
CETN3 (centrin 3) | -0.12 | 3.51 | 0.178 | -0.33
NLRP2 (NLR family pyrin domain containing 2) | 0.656 | 1.58 | 0.583 | 0.537
APTX (aprataxin) | -0.353 | 1.23 | -0.508 | -0.326
VPS50 (VPS50 subunit of EARP/GARPII complex) | -0.631 | 1.12 | -0.247 | -0.445
KBTBD4 (kelch repeat and BTB domain containing 4) | -0.196 | 3.99 | -0.233 | -0.0261
NANOG (Nanog homeobox) | 0.00685 | 2.8 | -0.225 | 0.63
SLC61A1 | 0.74 | 1.95 | 0.773 | 0.638
CSDC2 (cold shock domain containing C2) | 0.247 | 3.92 | 0.0516 | 0.153
GRM3 (glutamate metabotropic receptor 3) | 0.728 | 1.57 | 0.713 | 0.832
NDUFA8 (NADH:ubiquinone oxidoreductase subunit A8) | -0.134 | 2.42 | 0.0543 | -0.000132
PDCL (phosducin like) | 0.587 | 2.59 | 0.708 | 0.495
SIRT7 (sirtuin 7) | -0.142 | 1.34 | -0.258 | -0.296
TNKS2 (tankyrase 2) | 0.581 | 1.83 | -0.0866 | 0.608
TAF7L (TATA-box binding protein associated factor 7 like) | -0.16 | 2.7 | -0.145 | -0.164
CAMK2G (calcium/calmodulin dependent protein kinase II gamma) | 0.269 | 2.31 | 0.226 | 0.151
SLC35H1 | 0.491 | 0.774 | 0.479 | 0.58
ICAM2 (intercellular adhesion molecule 2) | 0.202 | 0.834 | -0.275 | 0.0461
MARCKSL1 (MARCKS like 1) | -0.525 | 2.74 | -0.68 | -0.812
PTPN23 (protein tyrosine phosphatase non-receptor type 23) | -0.27 | 3.97 | -0.118 | -0.603
RAB11FIP4 (RAB11 family interacting protein 4) | 0.0693 | 2.3 | -0.0424 | 0.202
PDZD7 (PDZ domain containing 7) | 0.748 | 1.88 | 0.771 | 0.758
AQP3 (aquaporin 3 (Gill blood group)) | -0.256 | 1.9 | -0.413 | -0.141
ETV6 (ETS variant transcription factor 6) | 0.898 | 2.37 | 0.458 | 0.866
TSHB (thyroid stimulating hormone subunit beta) | 0.357 | 1.73 | 0.421 | 0.593
SERPINA7 (serpin family A member 7) | 0.602 | 1.43 | 0.53 | 0.589
TAF1B | 0.127 | 1.98 | 0.402 | 0.537
RNF24 (ring finger protein 24) | -0.495 | 2.09 | -0.544 | -0.529
PSMA4 (proteasome 20S subunit alpha 4) | -0.131 | 4.88 | 0.0888 | -0.424
EDAR (ectodysplasin A receptor) | 0.524 | 1.61 | 0.402 | 0.354
ANKK1 (ankyrin repeat and kinase domain containing 1) | 0.437 | 2.58 | 0.653 | 0.113
CSNK1E (casein kinase 1 epsilon) | -0.00842 | 3.69 | 0.0579 | -0.0154
NPAP1 (nuclear pore associated protein 1) | -0.869 | 2.16 | -0.647 | -0.977
CLTRN (collectrin, amino acid transport regulator) | -0.0879 | 1.3 | -0.637 | 0.284
CWH43 (cell wall biogenesis 43 C-terminal homolog) | 0.685 | 1.04 | 0.584 | 0.413
HPD (4-hydroxyphenylpyruvate dioxygenase) | -0.128 | 2.98 | -0.0168 | -0.264

Copied from the list.
Under “mean distance from KSR1 profile”, ETV6 (ETS variant transcription factor 6) shows 2.37
APTX (aprataxin), mean distance from KSR1 profile = 1.23
GALNT2 (polypeptide N-acetylgalactosaminyltransferase 2), KSR1 correlation, replicate 2: -0.59
INTS14 (integrator complex subunit 14), mean correlation with KSR1 profile: 0.614
Value for TAF1B in “mean correlation with KSR1 profile”: 0.127
